According to the supplement of paper PMC8728848:
This is one part of the list.

Columns and labels:
Assay in all cases: glycan array binding signal (z-score within array); higher = stronger binding
Conditions in all cases: glycan notation: IUPAC condensed, linker removed
[1] = molecular target: GlcNAc(b1-4)GlcNAc(b1-4)GlcNAc(b1-4)GlcNAc(b1-4)GlcNAc(b1-4)GlcNAc
Procedure, shortened: (§1)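 Columns mapping to the same glycan were averaged after glycan names were converted to IUPAC-condensed notation. The data come from 3228 arrays in the Consortium for Functional Glycomics database, limited to those with an available protein sequence. Binding is reported as a within-array Z-score averaged across arrays of one protein sequence and across linkers.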

[2] = molecular target: GlcNAc(b1-4)[GlcNAc(b1-6)]GalNAc
Procedure, shortened: as §1

[3] = molecular target: GlcNAc(b1-6)Gal(b1-4)GlcNAc
Procedure, shortened: as §1

GlcNAc(b1-6)GalNAc = molecular target: GlcNAc(b1-6)GalNAc
Procedure, shortened: as §1

[4] = molecular target: GlcNAc6S(b1-3)Gal(b1-4)GlcNAc
Procedure, shortened: as §1

Kdn(a2-3)Gal(b1-3)GalNAc = molecular target: Kdn(a2-3)Gal(b1-3)GalNAc
Procedure, shortened: as §1

Kdn(a2-3)Gal(b1-3)GlcNAc = molecular target: Kdn(a2-3)Gal(b1-3)GlcNAc
Procedure, shortened: as §1

Kdn(a2-3)Gal(b1-4)Glc = molecular target: Kdn(a2-3)Gal(b1-4)Glc
Procedure, shortened: as §1

Kdn(a2-3)Gal(b1-4)GlcNAc = molecular target: Kdn(a2-3)Gal(b1-4)GlcNAc
Procedure, shortened: as §1

[5] = molecular target: Kdn(a2-3)Gal(b1-4)[Fuc(a1-3)]GlcNAc
Procedure, shortened: as §1

Kdn(a2-6)Gal(b1-4)GlcNAc = molecular target: Kdn(a2-6)Gal(b1-4)GlcNAc
Procedure, shortened: as §1

[6] = molecular target: Man(a1-2)Man(a1-2)Man(a1-3)Man
Procedure, shortened: as §1

[7] = molecular target: Man(a1-2)Man(a1-2)Man(a1-6)[Man(a1-3)]Man
Procedure, shortened: as §1

Man(a1-2)Man(a1-3)Man = molecular target: Man(a1-2)Man(a1-3)Man
Procedure, shortened: as §1

[8] = molecular target: Man(a1-2)Man(a1-3)[Man(a1-2)Man(a1-6)]Man
Procedure, shortened: as §1

[9] = molecular target: Man(a1-2)Man(a1-3)[Man(a1-2)Man(a1-6)]Man(a1-6)[Man(a1-2)Man(a1-2)Man(a1-3)]Man
Procedure, shortened: as §1

[10] = molecular target: Man(a1-2)Man(a1-3)[Man(a1-2)Man(a1-6)]Man(a1-6)[Man(a1-2)Man(a1-2)Man(a1-3)]Man(b1-4)GlcNAc(b1-4)GlcNAc
Procedure, shortened: as §1

[11] = molecular target: Man(a1-2)Man(a1-3)[Man(a1-6)]Man(a1-6)[Man(a1-2)Man(a1-3)]Man(b1-4)GlcNAc(b1-4)GlcNAc
Procedure, shortened: as §1

[12] = molecular target: Man(a1-2)Man(a1-6)[Man(a1-3)]Man(a1-6)[Man(a1-2)Man(a1-2)Man(a1-3)]Man
Procedure, shortened: as §1

[13] = molecular target: Man(a1-2)Man(a1-6)[Man(a1-3)]Man(a1-6)[Man(a1-2)Man(a1-2)Man(a1-3)]Man(b1-4)GlcNAc(b1-4)GlcNAc
Procedure, shortened: as §1

Man(a1-3)[Man(a1-6)]Man = molecular target: Man(a1-3)[Man(a1-6)]Man
Procedure, shortened: as §1

[14] = molecular target: Man(a1-3)[Man(a1-6)]Man(a1-6)[Man(a1-2)Man(a1-3)]Man(b1-4)GlcNAc(b1-4)GlcNAc
Procedure, shortened: as §1

[15] = molecular target: Man(a1-3)[Man(a1-6)]Man(a1-6)[Man(a1-3)]Man
Procedure, shortened: as §1

[16] = molecular target: Man(a1-3)[Man(a1-6)]Man(a1-6)[Man(a1-3)]Man(b1-4)GlcNAc(b1-4)GlcNAc
Procedure, shortened: as §1

[17] = molecular target: Man(a1-3)[Man(a1-6)]Man(b1-4)GlcNAc(b1-4)GlcNAc
Procedure, shortened: as §1

[18] = molecular target: Man(a1-3)[Man(a1-6)]Man(b1-4)GlcNAc(b1-4)[Fuc(a1-6)]GlcNAc
Procedure, shortened: as §1

Man(a1-6)Man = molecular target: Man(a1-6)Man
Procedure, shortened: as §1

Man(b1-4)GlcNAc = molecular target: Man(b1-4)GlcNAc
Procedure, shortened: as §1

MurNAc(b1-4)GlcNAc = molecular target: MurNAc(b1-4)GlcNAc
Procedure, shortened: as §1

Neu5Ac(a2-3)Gal = molecular target: Neu5Ac(a2-3)Gal
Procedure, shortened: as §1

[19] = molecular target: Neu5Ac(a2-3)Gal(b1-3)GalNAc
Procedure, shortened: as §1

[20] = molecular target: Neu5Ac(a2-3)Gal(b1-3)GalNAc(b1-3)Gal(a1-4)Gal(b1-4)Glc
Procedure, shortened: as §1

[21] = molecular target: Neu5Ac(a2-3)Gal(b1-3)GalNAc(b1-4)[Neu5Ac(a2-3)]Gal(b1-4)Glc
Procedure, shortened: as §1

[22] = molecular target: Neu5Ac(a2-3)Gal(b1-3)GalNAc(b1-4)[Neu5Ac(a2-8)Neu5Ac(a2-3)]Gal(b1-4)Glc
Procedure, shortened: as §1

[23] = molecular target: Neu5Ac(a2-3)Gal(b1-3)GalNAc6S
Procedure, shortened: as §1

[24] = molecular target: Neu5Ac(a2-3)Gal(b1-3)GlcNAc
Procedure, shortened: as §1

[25] = molecular target: Neu5Ac(a2-3)Gal(b1-3)GlcNAc(b1-2)Man
Procedure, shortened: as §1

B1: PX9961Q-bfa-504-27-504 (Bacteroides fragilis) (protein)
chain: NDWLDRKPADGIPSEDAITNYNDALTARTGMYDGIQGNSNATSYYGARMFYYGDVRADDMQARTQGMRSSSCYEMLYTVDDAPNMWNIPYNVIRRANRLIEAINEKKVTDATEAQIGKIYSEALVVRALVHFDLVRIYGMPYTADNGASLGVPVIVKPLERNDLPSRNTVAEVYTQVITDLTDAINSGYLAKDQTPGYINEWAAKALLTRVYLTKGDNENALKVAEDIITNSPYKLWTNEEYVNAWYKSNGAHTNEMIFEVVNASNDDWTDRNGIAYLLNENGYADAIVTKSFMNMLSQDPKDVRIGMVLPAQYDKDLQEEYGDAKIFINKFPADKDDVGEMRLNNLPLLRLSEVYLSAAEAAAKLGGHQDKAAKYLNEIVQRANPEAKAISEADATVERIILERRKEMIGEGQRYFDALRNNETIVRYKDEGDKGYHYSLIKESQSFDRTYFRAILPIPVDETNVNPNLRAQQNPGY
[1]
  glycan array binding signal (z-score): -0.594
[2]
  glycan array binding signal (z-score): -0.549
[3]
  glycan array binding signal (z-score): 0.387
GlcNAc(b1-6)GalNAc
  glycan array binding signal (z-score): 0.361
[4]
  glycan array binding signal (z-score): -0.463
Kdn(a2-3)Gal(b1-3)GalNAc
  glycan array binding signal (z-score): 0.008
Kdn(a2-3)Gal(b1-3)GlcNAc
  glycan array binding signal (z-score): -0.992
Kdn(a2-3)Gal(b1-4)Glc
  glycan array binding signal (z-score): -0.215
Kdn(a2-3)Gal(b1-4)GlcNAc
  glycan array binding signal (z-score): 0.306
[5]
  glycan array binding signal (z-score): 1.91
Kdn(a2-6)Gal(b1-4)GlcNAc
  glycan array binding signal (z-score): 0.757
[6]
  glycan array binding signal (z-score): 0.58
[7]
  glycan array binding signal (z-score): 0.712
Man(a1-2)Man(a1-3)Man
  glycan array binding signal (z-score): 0.177
[8]
  glycan array binding signal (z-score): -0.309
[9]
  glycan array binding signal (z-score): -1.15
[10]
  glycan array binding signal (z-score): 0.272
[11]
  glycan array binding signal (z-score): -0.67
[12]
  glycan array binding signal (z-score): -0.348
[13]
  glycan array binding signal (z-score): 0.616
Man(a1-3)[Man(a1-6)]Man
  glycan array binding signal (z-score): -1.24
[14]
  glycan array binding signal (z-score): -0.452
[15]
  glycan array binding signal (z-score): 0.661
[16]
  glycan array binding signal (z-score): 0.933
[17]
  glycan array binding signal (z-score): -0.057
[18]
  glycan array binding signal (z-score): -0.197
Man(a1-6)Man
  glycan array binding signal (z-score): -0.352
Man(b1-4)GlcNAc
  glycan array binding signal (z-score): 1.19
MurNAc(b1-4)GlcNAc
  glycan array binding signal (z-score): -0.265
Neu5Ac(a2-3)Gal
  glycan array binding signal (z-score): -0.059
[19]
  glycan array binding signal (z-score): -0.722
[20]
  glycan array binding signal (z-score): -0.286
[21]
  glycan array binding signal (z-score): -0.636
[22]
  glycan array binding signal (z-score): -0.412
[23]
  glycan array binding signal (z-score): -0.665
[24]
  glycan array binding signal (z-score): -0.213
[25]
  glycan array binding signal (z-score): -0.633
